Library screening results

Each number is a percent effect as filed.
How 0% and 100% were set is not recorded. Most values in the screen are low, and negative values occur.
The compounds are a random part of those screened.
A dash means the value is not listed here; it may have been measured.

A: 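Whole-cell assay for inhibitors of Mycobacterium tuberculosis growth, labelled Cornell in the record; the read-out is not stated. The concentration is filed as 10 mM, unlikely as a test dose, so the dose is not known. The record gives no direction; compounds strong in two other growth screens of this library score well above the rest, so higher reads as stronger inhibition. About 53,000 compounds were tested under these conditions; 1.7% (about 900) showed 50% or more at least once.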
B: 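Assay on Mycobacterium tuberculosis, filed only as a heat shock assay from Cornell; the read-out is not stated. The concentration is filed as 10 mM, unlikely as a test dose, so the dose is not known. The record gives no direction; compounds that gave an IC50 in retests scored well above the rest, so higher reads as stronger inhibition. Size under these conditions: about 69,000 compounds, about 930 of them at 50% or above in at least one test.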

compound | A | B
CC(OCC1CC1)C(=O)Nc1nccn1Cc1ccccc1 (centres unmarked) | 51.13 | 81.58
COc1cc(CNC2CCN(c3ccccc3)C2)cc(OC)c1OC (centres unmarked) | 17.18 | 1.638
CC(C)c1ncc2c(n1)CN(Cc1nc(-c3cccnc3)no1)CC2 | 19.53 | 9.107
CCc1c(C)sc2ncnc(N3CCN(C4CCOCC4)CC3)c12 | 14.79 | 35.5
CCCNC(=O)C1CCN(Cc2csc(C(C)C)n2)CC1 | - | -21.23
O=C(N[C@@H]1CCN(Cc2cccc3nonc23)C[C@H]1O)c1cccnc1 | 4.397 | -11.5
O=C(O)C(F)(F)F.O=C(O)C(F)(F)F.O=C(O)C(F)(F)F.[H][C@]12C[C@@H](Cn3cncn3)N(C(C)C)[C@@]1([H])CCN(Cc1nccn1C)C2 | -50.54 | 3.438
CCOCCN1CCN(CC(O)c2ccc(C(F)(F)F)cc2)CC1 (centres unmarked) | -1.839 | -9.375
[H][C@@]12CCN(Cc3ccncc3)C[C@]1([H])OCCN(c1ccccc1)C2=O | - | 10.99
O=C(CCN1C(=O)CC2(CCCC2)C1=O)NCCc1nccs1 | 23.58 | -8.052
CN(C)C(=O)COc1ccccc1CN1CCCC2(C1)CN(C)C(=O)O2 (centres unmarked) | -8.705 | -1.867
CC(=O)N(Cc1ncc(C)o1)C1CCN(Cc2cccnc2)C1 (centres unmarked) | -27.24 | 3.25
CN(C)Cc1ccc(C(N)=O)cc1NC(=O)c1cccc(C#N)c1 | 25.46 | -18.68
CCCS(=O)(=O)N1CCC2(CCCC(=O)N2C)CC1 | - | 12.23
[H][C@@]12CCCCCN(C(C)=O)[C@@]1([H])[C@H](c1cccc(F)c1)CN2CCC(N)=O | -1.973 | 12.07
O=S1(=O)NC2(CCCN(Cc3ccc(Cl)cc3)C2)COc2ccccc21 (centres unmarked) | - | -14.98
CN(Cc1ccncc1)C(=O)NC1CCCN(c2ncccn2)C1 (centres unmarked) | - | -33.81
[H][C@]12CC[C@]([H])(CN(S(C)(=O)=O)C1)N(C(=O)Cn1nc3ccccc3n1)C2 | -21.15 | 1.248
C[C@@H]1CN(C2Cc3ccccc3C2)CC[C@@]1(O)C1CCOCC1 | 36.52 | -5.455
c1ccc(-n2cnnc2CCCN2CCOCC2)cc1 | - | 13.24
O=c1ccc(-n2ccnc2)nn1CCNS(=O)(=O)c1ccccc1Cl | 27.61 | 15.79
C[C@H](O)CNC(=O)c1cnc(-c2ccccc2)nc1O | - | -4.5
COc1ccc(C(=O)O)cc1-c1cccc(C(C)N(C)C)c1 (centres unmarked) | -40.34 | -15.22
CC1c2ncc(COCC3CC3)n2CCN1C.O=C(O)C(F)(F)F (centres unmarked) | 12.48 | -14.86
COc1cccc(NC(=O)NCC(Cc2cnn(C)c2)C(N)=O)c1 (centres unmarked) | 1.931 | 12.56
CCC(CO)Nc1nc(C(F)F)nc2ccccc12 (centres unmarked) | 0.6677 | 10.94
O=C(O)C(F)(F)F.[H][C@]12CCC[C@@]1(COc1ccccn1)CN(C(=O)c1cc(C)nn1CC)C2 | 16.85 | -22.73
N[C@@H]1c2ccccc2C2(CCN(c3ccc(C(F)(F)F)cn3)CC2)[C@H]1O | 15.43 | 12.63
NC(=O)c1cccc(OCC(=O)NS(=O)(=O)c2ccc3c(c2)CCC3)c1 | - | 6.518
CCn1c(CN(C)C)nnc1C1CCN(Cc2ccccn2)CC1 | -5.172 | -23.28
Cc1cc(CN(C)CC2CC(C3CCCCC3)=NO2)no1 (centres unmarked) | 27.62 | -0.2836
CC(NC(=O)Nc1nccs1)c1ccncc1 (centres unmarked) | 10.85 | 3.775
[H][C@]12CCCN(S(=O)(=O)c3ccc4c(c3)CCC4)[C@@]1([H])CN(C(=O)C1CC1)C2 | -23.85 | -23.82
CCCc1n[nH]cc1C(=O)NCC1COc2cc(OC)ccc2C1 (centres unmarked) | -27.01 | -16.82
CN(C)C1CCN(C(=O)Cc2csc(-c3ncccn3)n2)CC1 | - | 9.253
Cc1ccc2nc(C3CCCN3Cc3cccc(CCN)c3)[nH]c2c1 (centres unmarked) | 13.91 | -40.95
NC(=O)c1ccc(N2CCCCC2)c(NC(=O)c2cncc(Br)c2)c1 | 49.95 | 2.638
CC(C)c1noc(-c2ccc(NCCCC3CCOC3)nc2)n1 (centres unmarked) | 4.148 | -10.91
c1ccc(C(c2ccccc2)N2CCN(CCn3cncn3)CC2)cc1 | 11.18 | 15.74
OCCNc1cc(N2CCN(Cc3ccccc3)C(CCO)C2)ncn1 (centres unmarked) | 4.963 | -39.72
COc1ccc(CNC(=O)Nc2ccc(N3CCCC3)nc2)cc1O | - | -7.533
O=C(Cn1ccnc1)N1CC[C@H](Oc2cccc(F)c2)[C@@H](O)CC1 | 18.84 | -4.387
Cc1nc2cc(=O)[nH]n2c(C)c1CC(=O)NCc1ccoc1 | - | -8.404
NC(=O)C1(c2cnccn2)CCCN1Cc1ccc(Cl)cc1 (centres unmarked) | 24.22 | 3.147
CC1(C)OC(=O)N(CC(=O)N2CCC(c3ccccc3F)C2)C1=O (centres unmarked) | 22.76 | 7.945
Cn1cc(C(=O)NC2CCCC2)c(-c2cccnc2)n1 | - | 3.999
COCCN1CCCC1(C)c1nc(C)cc(N)n1 (centres unmarked) | -3.669 | 30.84
Cc1nc(C2CCCN2CCCNS(C)(=O)=O)no1 (centres unmarked) | - | -16.23
O=C(O)C(F)(F)F.c1cnc(N2CCOC3(COCCN(Cc4cc[nH]n4)C3)C2)nc1 (centres unmarked) | -54.91 | 22.29
Cc1csc(-c2ccc(NC(=O)N3CCOCC3)cc2)n1 | 9.859 | 5.159
Cn1nc(C(=O)N2CCCCCC2)cc1NC(=O)c1ccccc1 | 3.85 | 22.37
Cc1cc(C)n(C2CN(CC(=O)NCC(C)(C)N3CCOCC3)C2)n1 | - | -5.136
CC(C)c1nccn1CCn1cnc2ccsc2c1=O | -17.95 | 12.35
Cc1c(C(=O)N2CCC2(C)C)nnn1-c1cccc2cnccc12 | -45.08 | -20.44
Cc1c[nH]nc1C1CN(c2cnccn2)CCO1 (centres unmarked) | 7.631 | -4.008
O=C(CC1CC2(CCN(CC3CC3)CC2)c2ccccc21)NC1CCC1.O=C(O)C(F)(F)F (centres unmarked) | - | -33.11
CC1(C)CC(N(Cc2ccccc2)Cc2c[nH]cn2)CC(C)(C)N1.O=C(O)CC(O)(CC(=O)O)C(=O)O | 0.104 | -10.32
O=C(O)C(F)(F)F.O=C(O)C(F)(F)F.[H][C@@]12C[C@H](c3nc(C)no3)CN(Cc3scnc3C)[C@]1([H])CCO2 | 2.277 | 13.23
COc1cccc(CN(C)Cc2nc3cc(C)ccc3[nH]2)c1O | - | 14.32
CC(C)c1nc(CN(C)S(=O)(=O)c2cccs2)cs1 | - | -0.1562
CC(C)(C)c1noc(CCCC(=O)NCC2CCS(=O)(=O)C2)n1 (centres unmarked) | - | 10.46
CC1CCN(C(=O)C2CCCN(C(=O)Nc3ccccn3)C2)CC1 (centres unmarked) | 34.13 | 8.061
Cl.Cn1ccnc1CNC(=O)c1ccnc(C2CCNCC2)c1 | -5.824 | -6.004
O=C1Cc2cc(NC(=O)N3CCCN(Cc4cccs4)CC3)ccc2N1 | 31.36 | 7.052
Cl.O=C(C1CC1)N1CCC2(CC1)CNc1ccc(F)cc12 | 15.35 | 23.65
COCCc1noc(C2CCN(C(=O)Nc3cccs3)CC2)n1 | 17.42 | 10.2
CC(C)COC(=O)N1CCCN(C(=O)c2ccnc(N(C)C)c2)CC1 | - | -5.878
O=C(Cc1nc(-c2ccncc2)n[nH]1)NCCCN1CCOCC1 | 11.99 | 6.832
CCC1c2cccn2CCN1S(=O)(=O)N1CCOCC1 (centres unmarked) | -26.62 | -22.55
O=C(O)C(F)(F)F.O=C(O)C(F)(F)F.[H][C@@]12CN(Cc3ccncc3)C[C@]1([H])[C@@H](OC)CCN2S(=O)(=O)CC | -13.05 | 1.448
Cc1cnn(-c2ccc(S(=O)(=O)N(C)CC(C)(CO)CO)cc2F)c1 | - | -13.68
CN1CCN(Cc2cn3c(n2)CN(C(=O)c2ccccn2)CC3)CC1.O=C(O)C(F)(F)F.O=C(O)C(F)(F)F.O=C(O)C(F)(F)F | 17.34 | -36.79
O=C(COCCc1ccccc1)N1CCCC(n2cncn2)C1 (centres unmarked) | - | -1.21
Oc1nc(N2CCCC2)nc2nccc(-c3ccccn3)c12 | 20.24 | 12.98
COCc1cc(N(C)CCC(O)c2ccccc2)n2nccc2n1 (centres unmarked) | -0.9242 | 0.151

Repeated from the top, 6 entries:

CC(OCC1CC1)C(=O)Nc1nccn1Cc1ccccc1 (centres unmarked) read A: 51.13%; B: 81.58%.
COc1cc(CNC2CCN(c3ccccc3)C2)cc(OC)c1OC (centres unmarked) read A: 17.18%; B: 1.638%.
CC(C)c1ncc2c(n1)CN(Cc1nc(-c3cccnc3)no1)CC2 read A: 19.53%; B: 9.107%.
CCc1c(C)sc2ncnc(N3CCN(C4CCOCC4)CC3)c12 read A: 14.79%; B: 35.5%.
CCCNC(=O)C1CCN(Cc2csc(C(C)C)n2)CC1 read B: -21.23%.
O=C(N[C@@H]1CCN(Cc2cccc3nonc23)C[C@H]1O)c1cccnc1 read A: 4.397%; B: -11.5%.

Measurements from “University of Dundee, Small-Polar-MMV Screening Library” (2021), ChEMBL document CHEMBL3988442.